The list shows a part of the results. Most entries show no effect beyond the scatter of the controls.

Sequences of proteins named here, by UniProt entry; tags and fusion partners are left off. A change or cut given only in a name is not applied to a line headed by its entry.
UniProt P56546, whole entry: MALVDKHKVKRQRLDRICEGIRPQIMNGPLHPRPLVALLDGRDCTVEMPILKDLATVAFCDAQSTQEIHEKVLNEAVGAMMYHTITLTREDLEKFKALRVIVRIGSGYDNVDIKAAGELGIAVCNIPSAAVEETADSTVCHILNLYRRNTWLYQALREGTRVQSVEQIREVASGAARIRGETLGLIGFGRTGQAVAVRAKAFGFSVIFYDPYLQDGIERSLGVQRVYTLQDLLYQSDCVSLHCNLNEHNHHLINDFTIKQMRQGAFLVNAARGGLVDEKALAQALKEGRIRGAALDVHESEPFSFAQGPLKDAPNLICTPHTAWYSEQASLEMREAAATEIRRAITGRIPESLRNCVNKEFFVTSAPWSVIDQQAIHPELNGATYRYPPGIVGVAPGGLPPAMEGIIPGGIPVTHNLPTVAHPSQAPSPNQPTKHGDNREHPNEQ
UniProt P59808: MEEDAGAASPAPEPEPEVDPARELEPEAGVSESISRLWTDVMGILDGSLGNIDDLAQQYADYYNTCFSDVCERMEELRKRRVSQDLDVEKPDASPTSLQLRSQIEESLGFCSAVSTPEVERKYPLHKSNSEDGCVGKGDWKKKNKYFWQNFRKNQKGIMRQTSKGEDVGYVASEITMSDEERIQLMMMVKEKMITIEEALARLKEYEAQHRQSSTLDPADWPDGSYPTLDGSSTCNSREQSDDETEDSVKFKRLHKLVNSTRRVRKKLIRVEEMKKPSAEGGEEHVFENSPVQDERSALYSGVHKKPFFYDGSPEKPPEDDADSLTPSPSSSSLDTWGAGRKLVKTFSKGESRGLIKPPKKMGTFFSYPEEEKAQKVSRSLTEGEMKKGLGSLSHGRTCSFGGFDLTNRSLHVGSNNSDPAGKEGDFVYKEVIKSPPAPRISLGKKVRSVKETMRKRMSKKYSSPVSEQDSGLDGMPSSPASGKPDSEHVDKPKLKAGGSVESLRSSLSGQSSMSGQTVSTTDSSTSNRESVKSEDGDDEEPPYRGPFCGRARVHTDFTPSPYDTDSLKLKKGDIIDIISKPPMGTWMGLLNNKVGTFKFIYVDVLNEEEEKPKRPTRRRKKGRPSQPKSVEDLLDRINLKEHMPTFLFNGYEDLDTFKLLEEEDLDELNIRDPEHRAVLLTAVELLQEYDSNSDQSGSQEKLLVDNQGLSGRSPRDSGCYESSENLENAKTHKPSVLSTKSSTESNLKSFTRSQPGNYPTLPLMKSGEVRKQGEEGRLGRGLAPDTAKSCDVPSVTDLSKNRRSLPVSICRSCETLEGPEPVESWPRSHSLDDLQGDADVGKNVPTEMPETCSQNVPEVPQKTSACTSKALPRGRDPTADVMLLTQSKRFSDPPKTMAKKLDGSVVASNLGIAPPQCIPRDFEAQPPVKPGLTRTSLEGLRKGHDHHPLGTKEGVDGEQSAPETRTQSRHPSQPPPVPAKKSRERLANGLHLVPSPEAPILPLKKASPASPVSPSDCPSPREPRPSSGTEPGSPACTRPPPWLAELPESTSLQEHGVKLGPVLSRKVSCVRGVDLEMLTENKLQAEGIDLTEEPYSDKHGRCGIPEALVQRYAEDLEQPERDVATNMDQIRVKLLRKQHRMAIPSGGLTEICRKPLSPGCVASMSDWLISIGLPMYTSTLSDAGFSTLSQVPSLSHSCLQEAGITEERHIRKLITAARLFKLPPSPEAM
UniProt P56399: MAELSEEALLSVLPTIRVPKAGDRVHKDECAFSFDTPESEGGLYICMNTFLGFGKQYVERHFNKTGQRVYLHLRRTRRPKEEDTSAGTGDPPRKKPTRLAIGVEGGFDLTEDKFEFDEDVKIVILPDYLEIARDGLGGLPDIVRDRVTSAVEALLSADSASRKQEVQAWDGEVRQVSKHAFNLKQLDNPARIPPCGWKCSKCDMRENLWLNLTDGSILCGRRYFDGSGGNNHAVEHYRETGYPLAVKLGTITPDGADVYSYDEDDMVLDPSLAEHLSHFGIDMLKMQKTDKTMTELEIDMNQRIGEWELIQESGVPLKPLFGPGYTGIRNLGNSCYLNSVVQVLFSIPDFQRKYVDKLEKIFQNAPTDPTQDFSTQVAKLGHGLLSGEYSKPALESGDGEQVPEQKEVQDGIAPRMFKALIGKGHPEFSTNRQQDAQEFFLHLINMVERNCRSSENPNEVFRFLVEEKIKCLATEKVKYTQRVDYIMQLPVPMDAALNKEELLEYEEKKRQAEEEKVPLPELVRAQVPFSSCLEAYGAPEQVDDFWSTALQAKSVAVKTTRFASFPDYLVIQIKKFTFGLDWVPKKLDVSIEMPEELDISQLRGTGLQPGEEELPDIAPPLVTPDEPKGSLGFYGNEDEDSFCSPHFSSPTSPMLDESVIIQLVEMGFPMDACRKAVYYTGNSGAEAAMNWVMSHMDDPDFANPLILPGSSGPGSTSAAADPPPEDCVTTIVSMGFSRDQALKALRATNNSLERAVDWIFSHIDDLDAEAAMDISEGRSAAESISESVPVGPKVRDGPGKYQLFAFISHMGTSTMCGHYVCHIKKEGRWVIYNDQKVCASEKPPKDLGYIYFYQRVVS
UniProt P56389: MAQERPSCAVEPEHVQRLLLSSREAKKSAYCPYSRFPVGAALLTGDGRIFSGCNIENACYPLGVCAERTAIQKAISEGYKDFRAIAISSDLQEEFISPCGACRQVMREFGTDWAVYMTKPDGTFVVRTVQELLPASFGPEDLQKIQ
UniProt P58158: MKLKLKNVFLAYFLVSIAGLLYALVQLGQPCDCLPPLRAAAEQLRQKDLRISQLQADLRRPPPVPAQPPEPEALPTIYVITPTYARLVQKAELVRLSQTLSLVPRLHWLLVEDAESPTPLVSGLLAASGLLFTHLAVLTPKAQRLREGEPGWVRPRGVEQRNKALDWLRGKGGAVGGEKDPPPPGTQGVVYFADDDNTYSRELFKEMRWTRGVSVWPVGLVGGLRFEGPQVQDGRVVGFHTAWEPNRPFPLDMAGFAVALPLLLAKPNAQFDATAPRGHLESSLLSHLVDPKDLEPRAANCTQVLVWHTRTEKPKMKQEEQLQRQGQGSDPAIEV
UniProt P62915, whole entry: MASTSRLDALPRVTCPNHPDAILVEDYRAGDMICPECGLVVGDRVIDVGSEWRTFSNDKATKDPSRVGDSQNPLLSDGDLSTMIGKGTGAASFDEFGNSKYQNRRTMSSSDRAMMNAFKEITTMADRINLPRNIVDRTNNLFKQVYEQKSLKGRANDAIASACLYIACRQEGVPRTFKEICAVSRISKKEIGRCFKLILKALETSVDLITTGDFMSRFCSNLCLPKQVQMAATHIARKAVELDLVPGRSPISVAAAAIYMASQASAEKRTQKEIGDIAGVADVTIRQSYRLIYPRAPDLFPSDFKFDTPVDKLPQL
UniProt P63044, whole entry: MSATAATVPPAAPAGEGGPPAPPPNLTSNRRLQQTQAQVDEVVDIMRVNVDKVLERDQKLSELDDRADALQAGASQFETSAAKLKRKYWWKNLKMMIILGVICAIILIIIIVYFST
UniProt P59242: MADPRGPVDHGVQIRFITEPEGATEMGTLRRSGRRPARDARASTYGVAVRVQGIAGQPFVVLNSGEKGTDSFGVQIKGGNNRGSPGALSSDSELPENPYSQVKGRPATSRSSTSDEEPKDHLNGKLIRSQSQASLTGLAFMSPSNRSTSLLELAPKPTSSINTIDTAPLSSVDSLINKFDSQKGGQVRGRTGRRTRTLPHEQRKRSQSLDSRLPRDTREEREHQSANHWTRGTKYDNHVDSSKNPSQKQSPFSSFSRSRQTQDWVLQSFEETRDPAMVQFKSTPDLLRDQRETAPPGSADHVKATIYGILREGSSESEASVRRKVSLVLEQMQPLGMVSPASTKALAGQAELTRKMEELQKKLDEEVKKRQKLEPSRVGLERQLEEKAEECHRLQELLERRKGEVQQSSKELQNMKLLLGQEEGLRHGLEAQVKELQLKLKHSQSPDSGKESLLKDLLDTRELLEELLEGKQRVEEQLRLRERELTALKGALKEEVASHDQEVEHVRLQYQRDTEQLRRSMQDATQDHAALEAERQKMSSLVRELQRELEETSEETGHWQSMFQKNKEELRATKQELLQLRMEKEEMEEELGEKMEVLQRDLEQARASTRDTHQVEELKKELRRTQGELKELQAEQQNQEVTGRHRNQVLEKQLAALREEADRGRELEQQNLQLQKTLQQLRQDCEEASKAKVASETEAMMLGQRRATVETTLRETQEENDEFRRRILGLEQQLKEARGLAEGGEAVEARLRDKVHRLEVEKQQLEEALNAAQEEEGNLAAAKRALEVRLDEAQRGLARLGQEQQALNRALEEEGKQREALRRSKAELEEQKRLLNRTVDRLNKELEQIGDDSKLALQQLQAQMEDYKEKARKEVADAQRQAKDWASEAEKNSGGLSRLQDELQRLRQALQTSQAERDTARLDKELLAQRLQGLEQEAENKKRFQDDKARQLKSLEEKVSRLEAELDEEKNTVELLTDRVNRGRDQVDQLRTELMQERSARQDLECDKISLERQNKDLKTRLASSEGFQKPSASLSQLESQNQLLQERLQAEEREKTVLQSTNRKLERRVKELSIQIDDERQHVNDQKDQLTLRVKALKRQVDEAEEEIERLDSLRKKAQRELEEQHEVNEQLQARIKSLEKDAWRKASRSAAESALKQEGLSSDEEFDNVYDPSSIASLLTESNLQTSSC
UniProt P54841: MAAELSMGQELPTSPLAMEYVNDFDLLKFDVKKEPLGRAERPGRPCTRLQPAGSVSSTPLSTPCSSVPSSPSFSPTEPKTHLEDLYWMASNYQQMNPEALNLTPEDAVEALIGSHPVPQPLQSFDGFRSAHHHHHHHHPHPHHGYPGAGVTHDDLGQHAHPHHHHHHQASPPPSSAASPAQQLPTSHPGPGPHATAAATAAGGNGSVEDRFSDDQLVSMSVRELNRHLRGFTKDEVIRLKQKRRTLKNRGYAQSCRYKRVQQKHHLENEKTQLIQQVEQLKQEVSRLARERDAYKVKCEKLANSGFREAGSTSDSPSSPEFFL
UniProt P60762, whole entry: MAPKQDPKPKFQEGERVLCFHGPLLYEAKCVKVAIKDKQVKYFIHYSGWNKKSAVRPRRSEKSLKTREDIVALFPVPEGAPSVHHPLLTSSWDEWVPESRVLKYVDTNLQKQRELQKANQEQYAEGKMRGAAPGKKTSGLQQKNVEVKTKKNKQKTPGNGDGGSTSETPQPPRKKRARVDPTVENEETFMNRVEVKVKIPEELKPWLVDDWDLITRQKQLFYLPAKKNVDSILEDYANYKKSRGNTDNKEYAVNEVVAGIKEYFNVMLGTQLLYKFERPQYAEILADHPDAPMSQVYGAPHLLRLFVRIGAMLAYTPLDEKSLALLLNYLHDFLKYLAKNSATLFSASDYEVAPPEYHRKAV
UniProt P56371: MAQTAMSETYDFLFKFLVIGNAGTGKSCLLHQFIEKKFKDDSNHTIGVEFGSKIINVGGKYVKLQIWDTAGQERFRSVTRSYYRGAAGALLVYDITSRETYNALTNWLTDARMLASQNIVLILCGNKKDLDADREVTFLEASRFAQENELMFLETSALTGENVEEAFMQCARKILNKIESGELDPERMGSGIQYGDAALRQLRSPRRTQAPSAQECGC
UniProt P57724: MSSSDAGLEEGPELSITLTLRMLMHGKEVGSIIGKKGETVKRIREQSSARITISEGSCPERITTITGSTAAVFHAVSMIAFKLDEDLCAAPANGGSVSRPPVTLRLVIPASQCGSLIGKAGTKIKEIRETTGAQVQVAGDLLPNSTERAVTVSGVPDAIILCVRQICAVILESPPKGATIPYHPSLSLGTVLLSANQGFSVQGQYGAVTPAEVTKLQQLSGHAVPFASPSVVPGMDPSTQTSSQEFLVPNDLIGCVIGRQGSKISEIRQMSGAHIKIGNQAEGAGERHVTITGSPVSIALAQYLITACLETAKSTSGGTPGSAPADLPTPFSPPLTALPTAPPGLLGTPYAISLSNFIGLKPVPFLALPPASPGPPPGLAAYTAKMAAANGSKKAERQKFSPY
UniProt P56376: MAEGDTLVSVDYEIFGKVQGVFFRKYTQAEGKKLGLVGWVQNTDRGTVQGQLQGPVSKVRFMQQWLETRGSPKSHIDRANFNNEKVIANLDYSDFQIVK
UniProt P54869: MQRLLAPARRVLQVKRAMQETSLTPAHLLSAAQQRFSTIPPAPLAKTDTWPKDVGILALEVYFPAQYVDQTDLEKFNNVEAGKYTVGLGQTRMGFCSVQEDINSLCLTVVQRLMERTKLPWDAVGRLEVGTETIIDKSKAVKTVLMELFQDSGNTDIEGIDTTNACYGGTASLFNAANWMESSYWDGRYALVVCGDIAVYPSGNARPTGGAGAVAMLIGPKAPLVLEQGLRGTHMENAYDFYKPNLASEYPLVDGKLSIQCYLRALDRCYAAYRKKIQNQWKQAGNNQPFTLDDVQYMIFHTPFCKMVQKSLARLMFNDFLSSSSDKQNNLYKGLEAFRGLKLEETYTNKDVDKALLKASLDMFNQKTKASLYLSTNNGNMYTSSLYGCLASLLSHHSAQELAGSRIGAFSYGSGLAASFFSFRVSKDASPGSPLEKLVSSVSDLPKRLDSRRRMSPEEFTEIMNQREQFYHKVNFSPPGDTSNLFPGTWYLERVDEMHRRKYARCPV

Compound in the assay: CN[C@@H]1C[C@H]2O[C@@](C)([C@@H]1OC)n1c3ccccc3c3c4c(c5c6ccccc6n2c5c31)C(=O)NC4 [staurosporine]
The experiment in a line: log2 fold change of tryptic peptide abundance, ligand vs vehicle (limited proteolysis) (log2 ratio); higher = more trypsin-susceptible (destabilized). As to conditions: ligand concentration: 20 uM; sample: mouse liver crude lysate; replicate design: treated separately.
On to “UniProt P56546 (peptide sequence: MALVDKHK, peptide start residue: 1)”, for which the log2 fold change is -0.193.

Turning to “UniProt P55050 (peptide sequence: LTITQDGNKFTVK, peptide start residue: 39)”, the log2 fold change is 0.171. The result for “UniProt P60670 (peptide sequence: LSPDGHFGSK, peptide start residue: 357)” reads -0.291; that for “UniProt P55041 (peptide sequence: QGTVGMQPQQR, peptide start residue: 10)”, 0.616; that for “UniProt P59048 (peptide sequence: LFEAQGKPELK, peptide start residue: 102)”, 0.169.

With “UniProt P55302 (peptide sequence: NEPEMAAK, peptide start residue: 43)”, the log2 fold change was -0.562. The result for “UniProt P58006 (peptide sequence: VHVNLLLIEAR, peptide start residue: 465)” reads 0.121. The result for “UniProt P59808 (peptide sequence: HPSQPPPVPAKK, peptide start residue: 971)” reads 0.41. As for “UniProt P56399 (peptide sequence: DGLGGLPDIVRDR, peptide start residue: 134)”, the log2 fold change is -0.404. Take “UniProt P62960 (peptide sequence: VLGTVKWFNVR, peptide start residue: 57)”: the log2 fold change was -0.184. As to “UniProt P59325 (peptide sequence: YVSKELAK, peptide start residue: 360)”, the log2 fold change is -0.34. With “UniProt P56389 (peptide sequence: KSAYCPYSR, peptide start residue: 27)”, the log2 fold change is -0.477. The figure for “UniProt P59672 (peptide sequence: VQEEPSETK, peptide start residue: 918)” is -0.266; for “UniProt P58158 (peptide sequence: FEGPQVQDGR, peptide start residue: 226)” it is -0.105. The figure for “UniProt P59281 (peptide sequence: HMDPVNDTK, peptide start residue: 825)” is -0.634; for “UniProt P62915 (peptide sequence: APDLFPSDFK, peptide start residue: 296)” it is -0.205; for “UniProt P63044 (peptide sequence: RLQQTQAQVDEVVDIMR, peptide start residue: 31)” it is -0.136. For the target “UniProt P59242 (peptide sequence: QLAALREEADR, peptide start residue: 653)”, the log2 fold change amounted to 0.515. The result for “UniProt P54841 (peptide sequence: GFTKDEVIR, peptide start residue: 230)” reads 0.0621. The figure for “UniProt P58069 (peptide sequence: NLLPYLGPNK, peptide start residue: 48)” is -0.415. The figure for “UniProt P60762 (peptide sequence: ARVDPTVENEETFMNR, peptide start residue: 177)” is -0.315; for “UniProt P56371 (peptide sequence: DLDADREVTFLEASR, peptide start residue: 129)” it is -0.45. In the case of “UniProt P57724 (peptide sequence: IGNQAEGAGER, peptide start residue: 277)”, the log2 fold change was -0.382. The result for “UniProt P54728 (peptide sequence: ASFNNPDR, peptide start residue: 213)” reads 0.151. Turning to “UniProt P58389 (peptide sequence: LVALLDTLDR, peptide start residue: 77)”, the log2 fold change is -0.279. The result for “UniProt P59178 (peptide sequence: LEVVDKTQVSR, peptide start residue: 329)” reads -0.604; that for “UniProt P60122 (peptide sequence: MKIEEVK, peptide start residue: 1)”, -0.185; that for “UniProt P56135 (peptide sequence: ASLVPLKEK, peptide start residue: 2)”, -0.0696. Turning to “UniProt P56376 (peptide sequence: FMQQWLETR, peptide start residue: 61)”, the log2 fold change worked out at 0.202. Regarding “UniProt P54869 (peptide sequence: VSKDASPGSPLEKLVSSVSDLPK, peptide start residue: 425)”, the log2 fold change is 0.443. The result for “UniProt P58064 (peptide sequence: PRYELALILK, peptide start residue: 2)” reads 0.393.

The values are drawn from the supplement of paper PMC12819154, “High-throughput peptide-centric local stability assay extends protein–ligand identification to membrane proteins, tissues and bacteria” (Nature Structural & Molecular Biology, 2025).
